Experimental data from publication PMC10442857 (ACS Chemical Biology, 2023).

Test: general procedure: Fmoc solid-phase peptide synthesis; Rink amide MBHA resin (0.39 mmol/g); HCTU/DIPEA in NMP
Conditions: whole synthesis, scale of the general procedure 0.1 mmol; for final LC-MS purity: analytical HPLC-MS

Substance	final LC-MS purity [%]	isolated yield [%]
PEPTIDE1{[Aib].S.[Dap].F.L.S.P.Y.[am]}$$$$V2.0	99	26
PEPTIDE1{G.S.[Dap].F.L.S.P.E.[am]}|CHEM1{[C8]}$PEPTIDE1,CHEM1,3:R3-1:R2$$$V2.0	96	22
H-GS-Dap-Nal-1-LSPT-(SulfoCy5-K)-NH2	95	7
PEPTIDE1{G.S.[Dap].F.L.S.P.Y.[am]}$$$$V2.0	99	36
PEPTIDE1{[Inp].S.[Dap].F.L.S.P.Y.[am]}$$$$V2.0	99	28
PEPTIDE1{G.S.[Dap].[Nal-2].L.S.P.T.[am]}$$$$V2.0	98	34
PEPTIDE1{G.S.[Dap].[Nal-1].L.S.P.T.[am]}$$$$V2.0	99	10
PEPTIDE1{G.S.[Dap].F.L.S.P.N.[am]}|CHEM1{[C8]}$PEPTIDE1,CHEM1,3:R3-1:R2$$$V2.0	99	25
PEPTIDE1{G.S.[Dap].F.L.S.P.T.[am]}|CHEM1{[C8]}$PEPTIDE1,CHEM1,3:R3-1:R2$$$V2.0	99	24
PEPTIDE1{G.S.[Dap].F.L.S.P.Y.[am]}|CHEM1{[6FN]}$PEPTIDE1,CHEM1,3:R3-1:R2$$$V2.0	99	25
PEPTIDE1{G.S.[Dap].F.L.S.P.Y.[am]}|CHEM1{[C8]}$PEPTIDE1,CHEM1,3:R3-1:R2$$$V2.0	98	20
PEPTIDE1{[Inp].S.[Dap].[Nal-1].L.S.P.T.[am]}|CHEM1{[6FN]}$PEPTIDE1,CHEM1,3:R3-1:R2$$$V2.0	99	33

Strings that start with PEPTIDE1 are HELM notation: dots part the residues, brackets hold end groups and non-standard residues.
